The data set deals with panelists. In words: Cooling intensity: panelists taste aqueous solutions versus menthol at 2 ppm. Particulars: aqueous solution at the concentration of Table 2. It is filed as in vivo.
On to “1-Isopropyl-4-methyl-bicyclo[2.2.2]oct-5-ene-2-carboxylic acid and 1-isopropyl-4-methyl-bicyclo[2.2.2]oct-5-ene-3-carboxylic acid [Example 2]”, for which the Odor entry is reported as “None”.

With `CC(C)C12C=CC(C)(CC1)C(CO)C2CO` (stereo not drawn) [Example 1, 1-Isopropyl-4-methyl-bicyclo[2.2.2]oct-5-ene-2,3-dicarbinol], the Odor entry is “None”.

For `CCNC(=O)C1CC2(C)C=CC1(C(C)C)CC2` (stereo not drawn) [Example 4, N-ethyl 1-Isopropyl-4-methyl-bicyclo[2.2.2]oct-5-ene-2-carboxamide], the Odor entry is recorded as “None”.

On to `CC1=CC2C(O)CC1CC2C(C)C` (stereo not drawn) [Example 6, 7-isopropyl-5-methyl-bicyclo[2.2.2]oct-5-en-2-ol], for which the Odor entry is listed as “slightly”.

Consider `CC1CCC(C(C)C)C(O)C1` (stereo not drawn) [I-Menthol, reference compound], for which the Odor entry is “Minty”.

Regarding `CCNC(=O)C1CC(C)CCC1C(C)C` (stereo not drawn) [WS-3, N-ethyl p-menthanecarboxamide, reference compound], the Odor result is listed as “None”.
